The target of this test is T1, C6-2 fragment of the CTL of rat Cav1.3L (rat).
T1 sequence: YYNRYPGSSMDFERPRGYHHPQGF
As to the kind of experiment: two-hybrid; Matchmaker GAL4 system, yeast AH109; Cav1.3 fragments as bait in pGBKT7, Snapin2 as prey (rat brain cDNA library clone in pACT2); blue colonies on high-stringent SD medium lacking Ade, His, Leu and Trp with X-alpha-Gal.

Results are given in words; binding and its absence hold for the method and conditions named. Binding calls can cover weak binding; strength is not graded here.

Regarding rat Snapin2, the binding result was “binds”.
